Measurements from paper PMC3401112.

Molecular target: GST-N163 (N-terminal rEag1 GST fusion protein that encodes the complete PAS domain) (rat)
Experiment: pull-down; GST protein-coated glutathione-agarose beads (4-8 µg) incubated with lysates of HEK293T cells expressing myc-tagged 14-3-3 isoforms at 4°C overnight; washed with buffer A; immunoblot with anti-myc; only the target purified

binding: binds
B1: myc-tagged 14-3-3θ (protein, UniProt P68255 1-245)
chain: MEKTELIQKAKLAEQAERYDDMATCMKAVTEQGAELSNEERNLLSVAYKNVVGGRRSAWRVISSIEQKTDTSDKKLQLIKDYREKVESELRSICTTVLELLDKYLIANATNPESKVFYLKMKGDYFRYLAEVACGDDRKQTIENSQGAYQEAFDISKKEMQPTHPIRLGLALNFSVFYYEILNNPELACTLAKTAFDEAIAELDTLNEDSYKDSTLIMQLLRDNLTLWTSDSAGEECDAAEGAEN

Results are given in words; binding and its absence hold for the method and conditions named. Binding seen in cells or lysates may run through a third protein. A result given as binding can be weak or reduced; the word gives no strength. Sequences can lack the tags named with a protein.
